Results as given in the supplement of paper PMC12823440, “Inhibitors supercharge kinase turnover through native proteolytic circuits” (Nature, 2025).
Structures can show the parent of a compound that is named as a salt. This is one part of the list. The calls rarely recur for the same compound in another form.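 Kinases were expressed as nanoluciferase fusions in K562 cells and luminescence was read every 4 h between 2 and 18 h as percent of control, DMSO set to 100% and a positive control to 0%. A time point counts as decreased when the signal drops significantly (2 sigma). The hit call is the authors' own, does not follow from the count of time points alone, and its rule is not shown.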

Amino acid sequences for entries named in this document (tags omitted). A change or cut given only in a name is not applied to a line headed by its entry.
UniProt P31749: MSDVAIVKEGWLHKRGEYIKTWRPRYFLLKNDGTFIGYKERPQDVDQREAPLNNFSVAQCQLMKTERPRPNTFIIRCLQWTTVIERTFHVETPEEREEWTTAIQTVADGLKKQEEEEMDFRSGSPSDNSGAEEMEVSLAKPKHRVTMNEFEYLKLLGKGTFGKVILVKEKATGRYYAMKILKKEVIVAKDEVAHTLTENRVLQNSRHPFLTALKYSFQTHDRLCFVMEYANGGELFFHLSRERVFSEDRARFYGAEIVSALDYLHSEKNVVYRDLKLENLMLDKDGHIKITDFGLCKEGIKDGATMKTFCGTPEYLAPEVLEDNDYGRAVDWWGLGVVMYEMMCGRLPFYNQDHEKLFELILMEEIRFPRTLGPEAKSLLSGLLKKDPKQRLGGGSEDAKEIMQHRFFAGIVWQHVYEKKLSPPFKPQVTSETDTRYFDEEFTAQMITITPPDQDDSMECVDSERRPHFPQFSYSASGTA
UniProt Q9UM73: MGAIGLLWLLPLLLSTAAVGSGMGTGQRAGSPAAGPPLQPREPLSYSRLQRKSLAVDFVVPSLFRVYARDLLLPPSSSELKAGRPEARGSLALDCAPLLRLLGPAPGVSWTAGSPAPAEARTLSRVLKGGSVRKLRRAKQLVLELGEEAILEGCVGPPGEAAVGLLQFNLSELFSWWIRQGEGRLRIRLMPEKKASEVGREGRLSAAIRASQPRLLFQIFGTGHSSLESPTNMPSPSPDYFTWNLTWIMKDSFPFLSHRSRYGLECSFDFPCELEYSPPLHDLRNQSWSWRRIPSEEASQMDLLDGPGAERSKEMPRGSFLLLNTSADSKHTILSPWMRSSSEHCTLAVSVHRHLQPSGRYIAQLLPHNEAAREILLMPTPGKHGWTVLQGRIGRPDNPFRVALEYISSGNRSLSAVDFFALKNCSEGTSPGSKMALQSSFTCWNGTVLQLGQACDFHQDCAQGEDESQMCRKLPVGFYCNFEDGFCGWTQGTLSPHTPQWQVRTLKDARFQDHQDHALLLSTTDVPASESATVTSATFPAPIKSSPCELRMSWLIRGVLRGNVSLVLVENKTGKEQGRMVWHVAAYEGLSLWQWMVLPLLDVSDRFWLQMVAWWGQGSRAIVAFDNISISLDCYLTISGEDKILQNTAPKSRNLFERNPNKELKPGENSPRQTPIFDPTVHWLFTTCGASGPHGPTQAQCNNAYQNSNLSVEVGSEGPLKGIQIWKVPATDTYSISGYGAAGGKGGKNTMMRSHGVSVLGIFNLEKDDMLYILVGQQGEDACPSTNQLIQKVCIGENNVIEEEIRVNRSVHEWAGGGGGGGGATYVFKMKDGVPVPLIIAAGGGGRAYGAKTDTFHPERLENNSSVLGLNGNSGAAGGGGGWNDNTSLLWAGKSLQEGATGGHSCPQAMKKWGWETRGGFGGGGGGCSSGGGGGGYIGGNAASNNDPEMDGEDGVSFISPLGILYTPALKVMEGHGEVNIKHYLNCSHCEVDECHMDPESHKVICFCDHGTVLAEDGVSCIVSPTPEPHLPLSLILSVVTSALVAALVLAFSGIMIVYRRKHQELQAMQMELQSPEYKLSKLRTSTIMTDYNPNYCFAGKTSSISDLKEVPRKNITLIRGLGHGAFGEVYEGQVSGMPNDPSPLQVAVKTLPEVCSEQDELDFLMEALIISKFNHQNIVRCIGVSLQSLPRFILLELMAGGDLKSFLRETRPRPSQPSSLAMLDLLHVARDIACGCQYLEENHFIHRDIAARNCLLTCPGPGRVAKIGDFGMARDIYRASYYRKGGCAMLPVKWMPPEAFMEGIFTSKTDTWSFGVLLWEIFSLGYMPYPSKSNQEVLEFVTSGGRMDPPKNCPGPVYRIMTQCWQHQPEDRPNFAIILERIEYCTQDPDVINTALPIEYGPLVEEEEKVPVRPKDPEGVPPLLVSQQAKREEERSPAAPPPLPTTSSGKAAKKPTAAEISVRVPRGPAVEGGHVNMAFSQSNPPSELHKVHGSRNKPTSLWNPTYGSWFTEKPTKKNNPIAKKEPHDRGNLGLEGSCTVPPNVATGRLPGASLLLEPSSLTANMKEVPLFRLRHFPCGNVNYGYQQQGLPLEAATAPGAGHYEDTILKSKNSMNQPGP
UniProt P10398: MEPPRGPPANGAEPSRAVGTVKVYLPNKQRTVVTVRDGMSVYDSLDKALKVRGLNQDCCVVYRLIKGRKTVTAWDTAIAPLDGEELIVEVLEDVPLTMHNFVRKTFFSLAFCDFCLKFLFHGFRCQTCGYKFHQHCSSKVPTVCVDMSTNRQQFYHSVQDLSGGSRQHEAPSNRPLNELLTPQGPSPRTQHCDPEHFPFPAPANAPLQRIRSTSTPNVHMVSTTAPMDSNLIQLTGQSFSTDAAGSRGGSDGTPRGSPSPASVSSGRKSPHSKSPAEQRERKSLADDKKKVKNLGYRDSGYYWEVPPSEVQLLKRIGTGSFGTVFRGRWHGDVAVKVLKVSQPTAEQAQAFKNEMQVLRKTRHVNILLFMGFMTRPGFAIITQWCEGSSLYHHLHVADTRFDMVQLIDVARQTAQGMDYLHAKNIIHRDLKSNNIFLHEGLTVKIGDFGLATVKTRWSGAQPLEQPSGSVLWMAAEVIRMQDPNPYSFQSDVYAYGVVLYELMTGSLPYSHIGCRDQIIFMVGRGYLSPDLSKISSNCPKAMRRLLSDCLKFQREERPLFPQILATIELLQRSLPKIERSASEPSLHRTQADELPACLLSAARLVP
UniProt O14965: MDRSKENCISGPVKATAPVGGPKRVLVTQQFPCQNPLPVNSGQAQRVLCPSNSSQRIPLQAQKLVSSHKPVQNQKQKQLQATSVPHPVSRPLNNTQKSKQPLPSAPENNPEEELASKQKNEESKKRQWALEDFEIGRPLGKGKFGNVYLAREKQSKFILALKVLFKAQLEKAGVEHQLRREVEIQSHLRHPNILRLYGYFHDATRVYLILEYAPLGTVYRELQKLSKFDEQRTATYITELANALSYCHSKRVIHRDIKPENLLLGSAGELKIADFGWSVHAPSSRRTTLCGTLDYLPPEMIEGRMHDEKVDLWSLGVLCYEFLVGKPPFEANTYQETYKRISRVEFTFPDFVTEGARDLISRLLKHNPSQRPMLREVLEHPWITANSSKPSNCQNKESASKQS
UniProt Q9UQB9: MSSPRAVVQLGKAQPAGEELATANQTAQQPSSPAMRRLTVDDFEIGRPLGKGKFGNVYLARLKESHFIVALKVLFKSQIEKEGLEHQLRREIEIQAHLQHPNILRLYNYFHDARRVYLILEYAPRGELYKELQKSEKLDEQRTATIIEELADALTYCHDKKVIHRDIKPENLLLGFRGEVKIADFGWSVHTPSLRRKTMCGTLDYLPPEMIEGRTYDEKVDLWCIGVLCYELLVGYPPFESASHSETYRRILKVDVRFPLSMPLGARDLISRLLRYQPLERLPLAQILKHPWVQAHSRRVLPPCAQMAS
UniProt P51451: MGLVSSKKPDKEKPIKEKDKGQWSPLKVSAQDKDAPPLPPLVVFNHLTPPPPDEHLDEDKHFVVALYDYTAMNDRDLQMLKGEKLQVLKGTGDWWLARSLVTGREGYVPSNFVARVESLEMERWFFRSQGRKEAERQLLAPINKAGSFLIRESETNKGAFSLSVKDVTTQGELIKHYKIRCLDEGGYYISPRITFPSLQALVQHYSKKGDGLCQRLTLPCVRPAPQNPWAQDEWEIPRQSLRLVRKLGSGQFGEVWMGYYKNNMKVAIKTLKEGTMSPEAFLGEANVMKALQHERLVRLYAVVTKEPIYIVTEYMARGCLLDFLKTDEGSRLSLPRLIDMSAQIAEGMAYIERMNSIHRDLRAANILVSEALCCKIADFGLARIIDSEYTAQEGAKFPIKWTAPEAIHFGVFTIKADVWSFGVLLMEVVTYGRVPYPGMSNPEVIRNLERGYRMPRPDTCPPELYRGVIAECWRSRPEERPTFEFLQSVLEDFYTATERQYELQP
UniProt P15056, whole entry, looked up: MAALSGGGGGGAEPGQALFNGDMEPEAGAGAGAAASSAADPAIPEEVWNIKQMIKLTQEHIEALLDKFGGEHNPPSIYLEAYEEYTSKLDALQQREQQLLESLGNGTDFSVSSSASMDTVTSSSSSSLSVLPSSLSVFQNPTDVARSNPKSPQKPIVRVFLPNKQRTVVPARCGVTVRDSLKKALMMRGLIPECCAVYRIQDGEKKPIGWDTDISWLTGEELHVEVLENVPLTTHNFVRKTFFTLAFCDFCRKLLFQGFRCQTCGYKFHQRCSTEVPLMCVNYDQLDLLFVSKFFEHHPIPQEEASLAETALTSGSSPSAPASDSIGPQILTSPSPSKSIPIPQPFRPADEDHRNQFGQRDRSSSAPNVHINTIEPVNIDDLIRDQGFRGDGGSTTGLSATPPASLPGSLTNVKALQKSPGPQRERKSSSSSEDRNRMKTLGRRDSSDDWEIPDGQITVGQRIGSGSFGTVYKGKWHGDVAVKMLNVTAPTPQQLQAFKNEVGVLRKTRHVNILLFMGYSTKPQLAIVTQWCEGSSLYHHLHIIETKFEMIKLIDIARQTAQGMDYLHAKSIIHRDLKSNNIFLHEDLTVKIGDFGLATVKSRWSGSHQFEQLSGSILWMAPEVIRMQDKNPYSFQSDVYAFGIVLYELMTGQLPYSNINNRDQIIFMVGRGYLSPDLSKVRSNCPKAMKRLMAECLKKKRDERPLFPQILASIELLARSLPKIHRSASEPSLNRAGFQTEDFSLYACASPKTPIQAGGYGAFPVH
UniProt Q06187: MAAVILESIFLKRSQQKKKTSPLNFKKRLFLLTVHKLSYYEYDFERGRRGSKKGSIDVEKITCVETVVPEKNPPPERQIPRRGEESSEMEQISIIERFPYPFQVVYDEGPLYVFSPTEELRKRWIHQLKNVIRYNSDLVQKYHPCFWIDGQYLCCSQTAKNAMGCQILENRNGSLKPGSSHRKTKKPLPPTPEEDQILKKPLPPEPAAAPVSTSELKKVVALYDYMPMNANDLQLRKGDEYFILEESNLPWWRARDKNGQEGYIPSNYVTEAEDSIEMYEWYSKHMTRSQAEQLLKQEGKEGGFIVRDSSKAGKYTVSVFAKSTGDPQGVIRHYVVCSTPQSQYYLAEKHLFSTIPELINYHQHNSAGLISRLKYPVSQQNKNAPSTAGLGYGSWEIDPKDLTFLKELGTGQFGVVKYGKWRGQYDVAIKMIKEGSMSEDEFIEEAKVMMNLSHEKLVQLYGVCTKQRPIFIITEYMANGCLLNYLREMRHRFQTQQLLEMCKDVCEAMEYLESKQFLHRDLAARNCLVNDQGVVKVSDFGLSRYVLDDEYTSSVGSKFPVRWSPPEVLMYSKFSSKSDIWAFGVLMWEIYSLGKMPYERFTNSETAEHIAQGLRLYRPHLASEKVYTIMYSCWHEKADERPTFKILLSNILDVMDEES
UniProt Q9UQM7, whole entry: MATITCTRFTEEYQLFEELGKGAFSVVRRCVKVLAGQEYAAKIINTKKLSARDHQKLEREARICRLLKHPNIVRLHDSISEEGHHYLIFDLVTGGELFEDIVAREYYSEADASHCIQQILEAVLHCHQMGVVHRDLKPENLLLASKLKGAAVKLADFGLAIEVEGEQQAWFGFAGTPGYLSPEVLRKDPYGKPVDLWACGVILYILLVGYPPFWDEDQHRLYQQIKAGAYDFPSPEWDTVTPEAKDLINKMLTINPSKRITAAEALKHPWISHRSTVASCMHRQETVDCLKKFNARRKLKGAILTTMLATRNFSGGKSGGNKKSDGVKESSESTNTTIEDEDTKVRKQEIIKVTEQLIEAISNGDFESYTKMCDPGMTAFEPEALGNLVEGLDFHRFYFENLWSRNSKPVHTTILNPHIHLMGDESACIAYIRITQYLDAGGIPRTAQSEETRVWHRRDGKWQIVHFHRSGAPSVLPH
UniProt Q00526: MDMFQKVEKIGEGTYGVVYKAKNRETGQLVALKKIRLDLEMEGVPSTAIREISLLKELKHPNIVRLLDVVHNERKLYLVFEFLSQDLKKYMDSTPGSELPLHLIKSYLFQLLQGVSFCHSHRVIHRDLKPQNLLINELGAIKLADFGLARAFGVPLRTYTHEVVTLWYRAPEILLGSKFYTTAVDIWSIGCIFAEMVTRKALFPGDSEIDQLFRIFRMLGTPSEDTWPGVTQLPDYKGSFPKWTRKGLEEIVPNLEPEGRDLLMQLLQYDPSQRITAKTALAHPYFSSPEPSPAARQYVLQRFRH
UniProt Q00534, whole entry: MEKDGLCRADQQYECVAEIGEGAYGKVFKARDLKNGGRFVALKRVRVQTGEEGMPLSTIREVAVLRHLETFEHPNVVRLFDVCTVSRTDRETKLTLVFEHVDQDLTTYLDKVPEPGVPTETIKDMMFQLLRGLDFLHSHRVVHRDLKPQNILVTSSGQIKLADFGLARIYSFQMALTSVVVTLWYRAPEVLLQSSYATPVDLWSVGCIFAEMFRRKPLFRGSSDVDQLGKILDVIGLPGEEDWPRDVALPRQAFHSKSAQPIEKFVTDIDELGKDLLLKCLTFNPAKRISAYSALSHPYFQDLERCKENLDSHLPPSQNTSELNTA

Assays:
Test in all cases: kinase-Nluc reporter destabilization hit call (1 = scored as downregulated) (binary); higher = compound decreases kinase abundance
Conditions in all cases: K562, 2-18 h
AKT1 = AKT1 (UniProt P31749)
ALK = ALK (UniProt Q9UM73)
ARAF = ARAF (UniProt P10398)
AURKA = AURKA (UniProt O14965)
AURKB = AURKB (UniProt Q96GD4)
AURKC = AURKC (UniProt Q9UQB9)
BLK = BLK (UniProt P51451)
BMX = BMX (UniProt P51813)
BRAF = BRAF (UniProt P15056)
BRAF_V600E = system: BRAF_V600E
BTK = BTK (UniProt Q06187)
CAMK2A = CAMK2A (UniProt Q9UQM7)
CAMK2G = CAMK2G (UniProt Q13555)
CDK10 = CDK10 (UniProt Q15131)
CDK2 = CDK2 (UniProt P24941)
CDK3 = CDK3 (UniProt Q00526)
CDK4 = CDK4 (UniProt P11802)
CDK5 = CDK5 (UniProt Q00535)
CDK6 = CDK6 (UniProt Q00534)

Measured: kinase-Nluc reporter destabilization hit call

Cc1ccc2c(=O)c3cccc(CC(=O)O)c3oc2c1C [Vadimezan]
inactive: AKT1; 10 µM 0 | ALK; 10 µM 0 | ARAF; 10 µM 0 | AURKA; 10 µM 0 | AURKB; 10 µM 0 | AURKC; 10 µM 0 | BLK; 10 µM 0 | BMX; 10 µM 0 | BRAF; 10 µM 0 | BRAF_V600E; 10 µM 0 | BTK; 10 µM 0 | CAMK2A; 10 µM 0 | CAMK2G; 10 µM 0 | CDK10; 10 µM 0 | CDK2; 10 µM 0 | CDK3; 10 µM 0 | CDK4; 10 µM 0 | CDK5; 10 µM 0 | CDK6; 10 µM 0

COc1cc2ncnc(Nc3ccc(F)c(Cl)c3)c2cc1OCCCN1CCOCC1 [Gefitinib]
inactive: AKT1; 10 µM 0 | ALK; 10 µM 0 | ARAF; 10 µM 0 | AURKA; 10 µM 0 | AURKB; 10 µM 0 | AURKC; 10 µM 0 | BLK; 10 µM 0 | BMX; 10 µM 0 | BRAF; 10 µM 0 | BRAF_V600E; 10 µM 0 | BTK; 10 µM 0 | CAMK2A; 10 µM 0 | CAMK2G; 10 µM 0 | CDK10; 10 µM 0 | CDK2; 10 µM 0 | CDK3; 10 µM 0 | CDK4; 10 µM 0 | CDK5; 10 µM 0 | CDK6; 10 µM 0

Cc1cc(Nc2cc(N3CCN(C)CC3)nc(/C=C/c3ccccc3)n2)n[nH]1
inactive: AKT1; 2.5 µM 0 | ALK; 2.5 µM 0 | ARAF; 2.5 µM 0 | AURKA; 2.5 µM 0 | AURKB; 2.5 µM 0 | AURKC; 2.5 µM 0 | BLK; 2.5 µM 0 | BMX; 2.5 µM 0 | BRAF; 2.5 µM 0 | BRAF_V600E; 2.5 µM 0 | BTK; 2.5 µM 0 | CAMK2A; 2.5 µM 0 | CAMK2G; 2.5 µM 0 | CDK10; 2.5 µM 0 | CDK2; 2.5 µM 0 | CDK3; 2.5 µM 0 | CDK4; 2.5 µM 0 | CDK5; 2.5 µM 0 | CDK6; 2.5 µM 0

O=C(O)c1ccc(Nc2ncc3c(n2)-c2ccc(Cl)cc2C(c2c(F)cccc2F)=NC3)cc1
inactive: AKT1; 10 µM 0 | ALK; 10 µM 0 | ARAF; 10 µM 0 | AURKA; 10 µM 0 | AURKB; 10 µM 0 | AURKC; 10 µM 0 | BLK; 10 µM 0 | BRAF; 10 µM 0 | BRAF_V600E; 10 µM 0 | BTK; 10 µM 0 | CAMK2A; 10 µM 0 | CAMK2G; 10 µM 0 | CDK10; 10 µM 0 | CDK2; 10 µM 0 | CDK3; 10 µM 0 | CDK4; 10 µM 0 | CDK5; 10 µM 0 | CDK6; 10 µM 0

O=C1COc2cc(O)ccc2-c2cc(O)c(O)cc2C1 [Protosappanin A]
inactive: BRAF_V600E; 10 µM 0

C[C@@H]1[C@H](C)[C@H](c2ccc3c(c2)OCO3)O[C@H]1c1ccc2c(c1)OCO2 [(-)-Zuonin A]
inactive: BRAF_V600E; 10 µM 0

Cc1[nH]c(/C=C2\C(=O)Nc3ccc(F)cc32)c(C)c1C(=O)NC[C@H](O)CN1CCOCC1
inactive: AKT1; 2.5 µM 0 | ALK; 2.5 µM 0 | ARAF; 2.5 µM 0 | AURKA; 2.5 µM 0 | AURKC; 2.5 µM 0 | BLK; 2.5 µM 0 | BMX; 2.5 µM 0 | BRAF; 2.5 µM 0 | BRAF_V600E; 2.5 µM 0 | BTK; 2.5 µM 0 | CAMK2A; 2.5 µM 0 | CAMK2G; 2.5 µM 0 | CDK10; 2.5 µM 0 | CDK2; 2.5 µM 0 | CDK3; 2.5 µM 0 | CDK4; 2.5 µM 0 | CDK5; 2.5 µM 0
active: CDK6; 2.5 µM 1

CC(C)(C)c1cc(NC(=O)Nc2ccc(-c3cccc4c(N)nccc34)cc2)no1
inactive: BRAF_V600E; 2.5 µM 0

Cc1cn(-c2cc(NC(=O)c3ccc(C)c(Nc4nccc(-c5cccnc5)n4)c3)cc(C(F)(F)F)c2)cn1 [Nilotinib]
inactive: AKT1; 2.5 µM 0 | ALK; 2.5 µM 0 | ARAF; 2.5 µM 0 | AURKA; 2.5 µM 0 | AURKB; 2.5 µM 0 | AURKC; 2.5 µM 0 | BLK; 2.5 µM 0 | BRAF_V600E; 2.5 µM 0 | BTK; 2.5 µM 0 | CAMK2A; 2.5 µM 0 | CAMK2G; 2.5 µM 0 | CDK10; 2.5 µM 0 | CDK2; 2.5 µM 0 | CDK3; 2.5 µM 0 | CDK4; 2.5 µM 0 | CDK5; 2.5 µM 0 | CDK6; 2.5 µM 0

Cc1cnc(Nc2ccc(OCCN3CCCC3)cc2)nc1Nc1cccc(S(=O)(=O)NC(C)(C)C)c1 [Fedratinib (hydrochloride hydrate)]
inactive: AKT1; 2.5 µM 0 | ALK; 2.5 µM 0 | ARAF; 2.5 µM 0 | AURKA; 2.5 µM 0 | AURKB; 2.5 µM 0 | AURKC; 2.5 µM 0 | BLK; 2.5 µM 0 | BRAF; 2.5 µM 0 | BRAF_V600E; 2.5 µM 0 | BTK; 2.5 µM 0 | CAMK2A; 2.5 µM 0 | CAMK2G; 2.5 µM 0 | CDK10; 2.5 µM 0 | CDK2; 2.5 µM 0 | CDK3; 2.5 µM 0 | CDK4; 2.5 µM 0 | CDK5; 2.5 µM 0 | CDK6; 2.5 µM 0

Cc1nc2c(-c3cnc(N)nc3)nc(N3CCOCC3)nc2n1C(C)C
inactive: BRAF_V600E; 2.5 µM 0

CC(C)n1nc(-c2cc3cc(O)ccc3[nH]2)c2c(N)ncnc21 [Torkinib]
inactive: AKT1; 2.5 µM 0 | ALK; 2.5 µM 0 | ARAF; 2.5 µM 0 | AURKA; 2.5 µM 0 | AURKB; 2.5 µM 0 | AURKC; 2.5 µM 0 | BLK; 2.5 µM 0 | BRAF; 2.5 µM 0 | BRAF_V600E; 2.5 µM 0 | BTK; 2.5 µM 0 | CAMK2A; 2.5 µM 0 | CAMK2G; 2.5 µM 0 | CDK10; 2.5 µM 0 | CDK2; 2.5 µM 0 | CDK3; 2.5 µM 0 | CDK4; 2.5 µM 0 | CDK5; 2.5 µM 0 | CDK6; 2.5 µM 0

A draw from above in order of SMILES length, falling.
Cc1cn(-c2cc(NC(=O)c3ccc(C)c(Nc4nccc(-c5cccnc5)n4)c3)cc(C(F)(F)F)c2)cn1 [Nilotinib]
inactive: AKT1; 2.5 µM 0 | ALK; 2.5 µM 0 | ARAF; 2.5 µM 0 | AURKA; 2.5 µM 0 | AURKB; 2.5 µM 0 | AURKC; 2.5 µM 0 | BLK; 2.5 µM 0 | BRAF_V600E; 2.5 µM 0 | BTK; 2.5 µM 0 | CAMK2A; 2.5 µM 0 | CAMK2G; 2.5 µM 0 | CDK10; 2.5 µM 0 | CDK2; 2.5 µM 0 | CDK3; 2.5 µM 0 | CDK4; 2.5 µM 0 | CDK5; 2.5 µM 0 | CDK6; 2.5 µM 0

CC(C)(C)c1cc(NC(=O)Nc2ccc(-c3cccc4c(N)nccc34)cc2)no1
inactive: BRAF_V600E; 2.5 µM 0

Cc1nc2c(-c3cnc(N)nc3)nc(N3CCOCC3)nc2n1C(C)C
inactive: BRAF_V600E; 2.5 µM 0
